Assay results as given in PMC3513969 (Evidence-based Complementary and Alternative Medicine : eCAM, 2012).
Read-outs that look alike come from different tables or passages of the source.

Experiments:
clinical = details: human, in vivo
[1] = healthy subjects; for CL/F: fasted, mean ± SD, n = 14

COC(=O)C1=C(C)NC(C)=C(C(=O)OC)C1c1ccccc1[N+](=O)[O-] [Nifedipine, nifedipine]
Tmax (clinical): 33 ± 25.8 min | Vd/F (clinical): 187 ± 69.9 L | AUC(0-inf) (clinical; 5 mg): 136 ± 38.2 ng·h/mL | AUC(0-t) (clinical; 5 mg): 132 ± 37 ng·h/mL | MRT (clinical; 5 mg): 221 ± 35.4 min | Tmax (clinical; 5 mg): 27.6 ± 9 min | Vd/F (clinical; 5 mg): 201 ± 56.1 L | Change of plasma concentration profile and pharmacokinetic parameters with concomitant LipoCol Forte ([1]; 5 mg nifedipine with or without one LipoCol Forte capsule): not significantly changed | CL/F ([1]; single 5 mg nifedipine capsule alone): 40.2 ± 14.9 L/h | CL/F ([1]; single 5 mg nifedipine capsule with 600 mg LipoCol Forte capsule): 37.3 ± 9.9 L/h
